These are yes or no findings as the source states them, for the method shown.
Target: PD-L2 protein
Test: ELISA on coated protein, goat anti-human FAB-HRP, OD450

binding: no binding (tested: 0.5 µg/mL antibody)
B1: humanized antibody anti-PD-L1-1 (antibody, V domains shown)
VH: EVQLVQSGAEVKKPGASVKVSCKASGYTFTKYIIHWVRQAPGQGLEWMGWFYPGSGNIRYNEKIKGRVTMTRDTSTSTVYMELSSLRSEDTAVYYCARHGELGGGYFFDYWGQGTTVTVSS
VL: DIQLTQSPSFLSASVGDRVTITCRASSSVSNIHWYQQKPGKAPKPWIYATSNLASGVPSRFSGSGSGTEFTLTISSLQPEDFATYYCQQWSSNPLTFGQGTKLEIKR
notes: Expressed in CHO-KSM4 cells; also called humanized PD-L1 antibody

— US20190077867A1 (REYOUNG SUZHOU BIOLOGY SCIENCE AND TECHNOLOGY, published 2019)
